Where “and” joins values, the source holds several entries; their conditions need not be identical. Identical values can stand only once. The densities may have been worked out from excess volumes.

A short description of this series: xn = mol fraction of the nth substance listed. Particulars: 101 kPa, x1 = 0.0001.

Consider `CCCC[n+]1ccn(C)c1.[Br-]` + O, for which the mass density (usually mass per unit of volume) runs as follows: (288.15 K) 999.2 kg/m3 and 999.4 kg/m3; (298.15 K) 997.2 kg/m3; (308.15 K) 994.2 kg/m3.

(Values after a compilation of properties of binary mixtures (doi:10.1016/j.molliq.2017.08.056).)
